This test addresses T1, SET and MYND domain-containing protein family member 5 (SMYD5) (human (endogenous in Hep3B)) (UniProt Q6GMV2).
T1 sequence: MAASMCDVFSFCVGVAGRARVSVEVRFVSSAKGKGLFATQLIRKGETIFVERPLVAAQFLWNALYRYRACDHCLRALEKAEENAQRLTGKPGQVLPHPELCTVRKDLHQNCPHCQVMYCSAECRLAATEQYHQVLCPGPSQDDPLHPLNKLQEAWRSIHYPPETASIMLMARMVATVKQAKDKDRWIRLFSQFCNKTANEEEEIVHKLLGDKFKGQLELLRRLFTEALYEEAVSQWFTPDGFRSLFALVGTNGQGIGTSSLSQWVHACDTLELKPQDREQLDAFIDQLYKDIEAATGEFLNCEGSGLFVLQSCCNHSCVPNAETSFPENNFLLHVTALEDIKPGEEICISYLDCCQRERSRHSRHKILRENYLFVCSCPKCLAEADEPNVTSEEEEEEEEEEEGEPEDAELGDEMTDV
As to the kind of experiment: co-IP; IP analysis of SMYD5 and p53 (Figure S7); cells and precipitating antibody not named for this experiment; the methods describe one protocol (SMYD5 antibody, A/G magnetic beads, overnight at 4 °C).

Results are given in words; binding and its absence hold for the method and conditions named. Binding seen in cells or lysates may run through a third protein. Some entries that bind do so weakly or less than the wild type.

p53 (from UniProt P04637 1-393): the binding entry is “binds”.

The values above are taken from PMC12389522.
